Results are given in words; binding and its absence hold for the method and conditions named.

By UniProt entry, the sequences of proteins in these tests, tags left out. Where a name states a change or a piece, a line headed by the entry shows the natural chain unless it says otherwise. Residues count along the entry.
UniProt Q9UGM3, residues 20-2413: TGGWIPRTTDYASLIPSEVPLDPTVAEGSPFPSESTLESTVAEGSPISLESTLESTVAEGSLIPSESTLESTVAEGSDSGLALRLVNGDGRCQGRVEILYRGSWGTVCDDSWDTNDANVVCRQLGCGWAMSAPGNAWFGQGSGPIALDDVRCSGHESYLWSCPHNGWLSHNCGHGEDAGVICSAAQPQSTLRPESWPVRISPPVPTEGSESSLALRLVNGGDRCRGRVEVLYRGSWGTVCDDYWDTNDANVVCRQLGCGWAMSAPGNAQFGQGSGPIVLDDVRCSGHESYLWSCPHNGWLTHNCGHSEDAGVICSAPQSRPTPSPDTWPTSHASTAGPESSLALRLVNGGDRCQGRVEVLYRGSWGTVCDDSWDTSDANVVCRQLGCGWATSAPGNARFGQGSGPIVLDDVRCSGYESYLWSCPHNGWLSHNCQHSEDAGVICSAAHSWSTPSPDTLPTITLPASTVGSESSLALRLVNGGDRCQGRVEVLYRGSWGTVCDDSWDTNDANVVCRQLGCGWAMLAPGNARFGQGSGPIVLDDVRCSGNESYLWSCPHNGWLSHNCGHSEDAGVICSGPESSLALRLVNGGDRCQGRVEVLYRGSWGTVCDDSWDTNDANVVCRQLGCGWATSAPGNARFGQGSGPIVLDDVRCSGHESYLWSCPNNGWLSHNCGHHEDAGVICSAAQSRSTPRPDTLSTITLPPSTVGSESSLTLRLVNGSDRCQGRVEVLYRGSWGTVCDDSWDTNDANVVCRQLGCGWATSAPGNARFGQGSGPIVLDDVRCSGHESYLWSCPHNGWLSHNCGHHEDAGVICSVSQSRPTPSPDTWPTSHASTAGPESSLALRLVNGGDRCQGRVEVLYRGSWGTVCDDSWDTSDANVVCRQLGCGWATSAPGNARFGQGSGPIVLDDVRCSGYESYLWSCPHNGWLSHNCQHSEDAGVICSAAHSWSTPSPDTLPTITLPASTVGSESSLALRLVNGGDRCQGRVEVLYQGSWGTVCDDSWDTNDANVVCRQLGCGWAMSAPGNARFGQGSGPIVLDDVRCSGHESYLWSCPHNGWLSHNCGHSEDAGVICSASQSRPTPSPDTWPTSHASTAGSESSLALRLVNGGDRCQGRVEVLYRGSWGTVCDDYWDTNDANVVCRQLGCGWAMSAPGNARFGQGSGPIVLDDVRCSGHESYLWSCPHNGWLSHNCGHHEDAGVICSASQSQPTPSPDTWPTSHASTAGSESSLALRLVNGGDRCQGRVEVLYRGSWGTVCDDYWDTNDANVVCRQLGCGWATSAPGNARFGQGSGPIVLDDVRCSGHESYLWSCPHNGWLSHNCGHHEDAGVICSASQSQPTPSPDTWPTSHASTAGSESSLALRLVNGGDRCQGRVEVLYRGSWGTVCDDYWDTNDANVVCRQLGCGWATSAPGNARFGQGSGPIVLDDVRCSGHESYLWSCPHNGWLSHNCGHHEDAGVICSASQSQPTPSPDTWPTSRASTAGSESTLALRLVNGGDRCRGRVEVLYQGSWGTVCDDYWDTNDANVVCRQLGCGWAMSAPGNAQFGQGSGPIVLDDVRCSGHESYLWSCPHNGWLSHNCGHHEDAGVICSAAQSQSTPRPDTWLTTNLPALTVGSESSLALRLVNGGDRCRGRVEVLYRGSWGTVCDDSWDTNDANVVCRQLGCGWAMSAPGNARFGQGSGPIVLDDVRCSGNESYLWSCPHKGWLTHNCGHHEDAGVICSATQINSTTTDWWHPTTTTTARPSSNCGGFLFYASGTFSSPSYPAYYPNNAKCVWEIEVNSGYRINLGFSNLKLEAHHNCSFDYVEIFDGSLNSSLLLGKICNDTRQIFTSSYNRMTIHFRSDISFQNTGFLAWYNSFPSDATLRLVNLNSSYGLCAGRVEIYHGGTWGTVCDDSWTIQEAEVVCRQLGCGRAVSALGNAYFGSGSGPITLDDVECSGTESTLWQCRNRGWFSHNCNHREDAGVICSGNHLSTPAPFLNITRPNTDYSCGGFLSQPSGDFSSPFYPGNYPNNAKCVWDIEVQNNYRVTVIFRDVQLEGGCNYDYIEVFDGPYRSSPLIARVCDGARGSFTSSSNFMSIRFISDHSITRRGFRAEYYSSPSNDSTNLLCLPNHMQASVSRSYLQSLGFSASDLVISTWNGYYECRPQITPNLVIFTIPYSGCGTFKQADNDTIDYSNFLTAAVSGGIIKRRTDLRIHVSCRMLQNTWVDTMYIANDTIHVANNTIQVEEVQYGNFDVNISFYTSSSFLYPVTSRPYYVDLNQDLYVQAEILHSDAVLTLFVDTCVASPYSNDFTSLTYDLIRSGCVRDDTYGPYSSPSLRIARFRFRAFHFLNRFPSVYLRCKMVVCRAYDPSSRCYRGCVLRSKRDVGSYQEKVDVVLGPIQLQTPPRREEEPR

The target in experiment [1] is T1, recombinant human glycosylated TFF2 (trefoil factor 2) (human) (UniProt Q03403).
T1 sequence (chain, asparagine N-linked glycosylation (position not printed)): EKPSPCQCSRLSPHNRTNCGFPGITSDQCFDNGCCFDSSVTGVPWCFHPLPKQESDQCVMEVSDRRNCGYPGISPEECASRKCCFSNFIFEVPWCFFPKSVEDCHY
The experiment is described as follows: condition: 600 ng/mL DMBT1^gp340 (highest tested); TFF coated at up to 2 µg/mL; ELISA; TFF proteins coated on Maxisorp plates (two-fold dilutions from 2 µg/mL, carbonate buffer pH 9.6, overnight 4 °C); DMBT1^gp340 in two-fold dilutions from 600 ng/mL for 2 h in TBS, 0.05% Tween 20, 5 mM CaCl2, pH 7.4, room temperature; detected with rabbit polyclonal K421 and alkaline phosphatase-coupled anti-rabbit IgG; both purified.

In experiment [2] the target is T2, recombinant human non-glycosylated TFF2 (trefoil factor 2) (human) (UniProt Q03403).
T2 sequence: T1 sequence (chain, asparagine N-linked glycosylation (position not printed))
The description is as above.

As for “Native DMBT1^gp340 (deleted in malignant brain tumors 1, glycoprotein 340) (from UniProt Q9UGM3 20-2413)”, the binding entry in experiment [1] and in experiment [2] was “no binding” each time.
